Results are given in words; binding and its absence hold for the method and conditions named. Some results given as binding are weak or reduced against the parent protein; the word gives no strength.
What was measured:
[1] = molecular target: human P-cadherin expressed on the cell surface (human) (UniProt P22223); assay: cell ELISA, H1650 cells
Hu P-cadherin-Fc (human) = Hu P-cadherin-Fc (human) (UniProt P22223); assay: ELISA

Amino acid sequences for entries named in this document (tags omitted). Residues count along the entry.
UniProt P22223, residues 108-654: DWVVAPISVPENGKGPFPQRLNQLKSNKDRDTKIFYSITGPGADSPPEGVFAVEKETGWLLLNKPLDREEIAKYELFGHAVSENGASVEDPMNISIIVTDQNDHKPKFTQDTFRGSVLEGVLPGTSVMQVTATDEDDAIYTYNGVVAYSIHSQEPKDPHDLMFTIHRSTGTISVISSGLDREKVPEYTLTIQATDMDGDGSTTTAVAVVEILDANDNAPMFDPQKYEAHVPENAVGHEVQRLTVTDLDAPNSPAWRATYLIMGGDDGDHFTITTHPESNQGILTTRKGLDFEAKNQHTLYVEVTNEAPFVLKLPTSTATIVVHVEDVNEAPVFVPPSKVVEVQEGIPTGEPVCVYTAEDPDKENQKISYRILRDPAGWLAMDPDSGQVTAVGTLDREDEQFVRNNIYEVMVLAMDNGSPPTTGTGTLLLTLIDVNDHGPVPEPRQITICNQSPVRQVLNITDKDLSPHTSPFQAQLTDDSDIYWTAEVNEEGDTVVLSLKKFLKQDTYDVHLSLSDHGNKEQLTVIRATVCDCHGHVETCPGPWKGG

- binding [1]: binds
- binding (Hu P-cadherin-Fc (human)): binds
B1: 35 EK-DART (bispecific antibody)
chain 1: QSVLTQPPSVSAAPGQKVTISCSGSSSNIGNNYVSWYQQLPGTAPKLLIYDNNKRPSGIPDRFSGSKSGTSATLGITGLQTGDEADYYCGTWDSSLSAVVFGGGTKLTVLGGGSGGGGEVQLVESGGGLVQPGGSLRLSCAASGFTFNTYAMNWVRQAPGKGLEWVARIRSKYNNYATYYADSVKDRFTISRDDSKNSLYLQMNSLKTEDTAVYYCVRHGNFGNSYVSWFAYWGQGTLVTVSSGGCGGGKVAALKEKVAALKEKVAALKEKVAALKE
chain 2: QAVVTQEPSLTVSPGGTVTLTCRSSTGAVTTSNYANWVQQKPGQAPRGLIGGTNKRAPWTPARFSGSLLGGKAALTITGAQAEDEADYYCALWYSNLWVFGGGTKLTVLGGGGSGGGGEVQLVQSGAEVKKPGASVKVSCKASGYTFTSYGISWVRQAPGQGLEWMGWISAYNGNTNYAQKLQGRVTMTTDTSTSTAYMELRSLRSDDTAVYYCATIDTASAFDIWGQGTMVTVSSGGCGGGEVAALEKEVAALEKEVAALEKEVAALEK

— patent publication US20160002357A1
